Measured values: US20070003534A1
No constants are given. Whether binding was seen depends on the method and setting. Some results given as binding are weak or reduced against the parent protein; the word gives no strength. Each block holds one binder with its values, some of them ahead of it.

Tests used:
[1] = target: bait c-Jun protein from the pCMV-cJun(502-957)CBPzz vector; assay: IVV cotranslation selection, bait c-Jun
[2] = target: bait c-Jun protein from the pCMV-cJun(502-957)CBPzz vector; assay: pull-down on IgG agarose, C-terminal labeled prey, with and without bait c-Jun, SDS-PAGE fluorescence
[3] = target: bait c-Jun protein from the pCMV-cJun(502-957)CBPzz vector; assay: pull-down on IgG agarose, C-terminal labeled prey, bait c-Jun

- binding [1]: binds
- binding [2]: binds
- binding [3]: binds
B1: SEQ ID NO 117 (protein)
chain: ETKNALNVVKNDLIAKVDQLSGEQEVLKGELEAAKQAKVKLENRIKELEKELKRVKSEAVTARREPREEVD

- binding [1]: binds
- binding [2]: binds
- binding [3]: binds
B2: SEQ ID NO 119 (protein)
chain: HSQALITTDRLKDAIFKERHCKAQLEIIVHRLQNEVKKLTIELMKARDQQED
